Screening data, single-dose tests

A: 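Phenotypic screen: M. tuberculosis growth, glucose 7H9 medium, 3 days; the read-out is not stated. Compounds at 50 µM. Direction is inferred from retests: higher values go with more growth inhibition. Of about 69,000 compounds tested this way, about 760 (1.1%) reached 50% or more in at least one test.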
B: 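Growth of Mycobacterium tuberculosis over 4 days (cholesterol / DPPC medium with tyloxapol); the read-out is not stated. Tested at 50 µM. Direction is inferred from retests: higher values go with more growth inhibition. About 69,000 compounds were tested under these conditions; 0.54% (about 370) showed 50% or more at least once.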

Results are given as percent effect. How 0% and 100% were set is not recorded. Most values in the screen are low, and negative values occur. This is an unselected part of the compounds tested. Two or more numbers in one place are separate tests of the same structure; such repeats can differ widely.

- c1ccc(CCN2CCCC2c2cccc(Nc3nccs3)n2)cc1 (stereo unspecified) : A: 35.97%; B: 2.163% & -7.801%
- c1ncc2c(n1)CN(Cc1nc(-c3ccc4c(c3)OCO4)no1)CC2 : A: 5.695%; B: 9.016%
- CCOCCNCc1cc(O)c2cc(C)ccc2n1 : A: -2.257% & 12.19%; B: 16.96%
- CN(CCc1ccccc1)c1cnn(Cc2ccccn2)c(=O)c1 : A: 1.118%; B: -0.9082%
- CN1Cc2ccccc2CC2(CCN(C(=O)[C@H]3CCCO3)CC2)C1=O : A: 12.72%; B: -7.788%
- O=C(O)C(F)(F)F.O=C(c1ccoc1)N1CCOCC2(CCN(C3CCOCC3)C2)C1 (stereo unspecified) : A: 6.838%; B: -5.762%
- Cc1csc(C2(NCc3ccc(OCC(F)F)cc3)CCCC2)n1 : A: 24.55%; B: 8.115%
- Cc1cc(CN(Cc2cccs2)CC2CCCO2)no1 (stereo unspecified) : A: 2.693%; B: -11.27%
- CC(C)(O)CN1CCN(C(=O)COC2CCCC2)CC1 : A: 16.47%; B: -12.93%
- CN(C)CCNCC1(O)CCCN(Cc2cccc(F)c2F)C1=O (stereo unspecified) : A: -5.28%; B: -8.011%
- CN(c1ccc(CNC(=O)c2ccc(O)nc2)cc1)C1CCCCC1 : A: 3.747%; B: -5.797%
- COc1cccc(S(=O)(=O)CCNC(C)Cn2cccn2)c1 (stereo unspecified) : A: -9.662%; B: 11.42%
- O=C(O)C(F)(F)F.O=C(c1cccc(F)c1)N1CCC2(CC1)CC(N1CCOCC1)C2 : A: 11.15%; B: 13.3% & -4.687%
- COc1cccc(N2CCN(C(C(=O)O)c3ccc(OC)nc3)CC2)c1 (stereo unspecified) : A: 16.59%; B: -18.86%
- CN(Cc1ccc(F)cc1)CC1(O)CCN(C(=O)c2ccccc2)C1 (stereo unspecified) : A: -27.28%; B: -7.94%
- COc1ccc(CNCC2CN(C3CC3)CCO2)cc1OC (stereo unspecified) : A: 22.79%; B: 13.83%
- CN1CCCN(Cn2nc(-c3ccccc3F)ccc2=O)CC1 : A: -0.5864%; B: 6.285%
- O=C(NCc1nnc2ccccn12)N1CCOC(c2cccs2)C1 (stereo unspecified) : A: 9.553% & 7.237%; B: 14.58%
- Cc1ncc2c(n1)CN(Cc1cn3ccsc3n1)CC2 : A: -9.428% & -0.07637%; B: -3.553%
- CCN(CC)CCNC(=O)c1cc(C(C)C)nc(N2CCCC2)n1 : A: -33.27%; B: -40.87%
- O=C(O)C(F)(F)F.O=C1NC2(CCN(C(=O)N3CCOCC3)CC2)CC1c1cccnc1 (stereo unspecified) : A: 17.84%; B: 4.829%
- Cc1noc(C)c1C(=O)NCCN1CCN(c2ccccc2)CC1 : A: -10.51%; B: -16.06%
- COc1ccc(CNC(=O)CNc2cc3c(cc2Cl)OCCO3)cc1 : A: 22.36%; B: 0.5133%
- CC(C)n1[nH]c(=O)c2c1NC(=O)CC2c1cccc(Br)c1 (stereo unspecified) : A: -14.6%; B: -13.15%
- O=C(O)C(F)(F)F.[H][C@]12C[C@@H](C(=O)N(C)C)CO[C@@]1([H])CCN(c1ncc(F)cn1)C2 : A: 0.3999%; B: -16.62%
- CC(C)CN1C(=O)C2(CCN(Cc3cccs3)C2)c2ccccc21.O=C(O)C(F)(F)F (stereo unspecified) : A: 24.33%; B: 4.291%
- CN(C)C1CCCN(C(=O)NCc2ccccc2-n2cccn2)C1 (stereo unspecified) : A: -33.87%; B: -17.41%
- O=C(c1ccco1)N1CCC(n2cc(-c3ccsc3)nn2)CC1 : A: -12.74%; B: -2.825%
- Cc1noc(C)c1-c1cc(CC2CCN(C(=O)c3cc[nH]n3)C2)ncn1 (stereo unspecified) : A: 26.2%; B: -13.68%
- C[C@@H]1CN(C2Cc3ccccc3C2)CC[C@@]1(O)C1CCOCC1 : A: 9.109%; B: -0.9511%
- Cn1cc(CN2CC[C@]3(C[C@H](OCc4ccccn4)CO3)C2)cn1 : A: -7.89%; B: -21.72%

Repeated from the top, 2 entries:

{"compound": "c1ccc(CCN2CCCC2c2cccc(Nc3nccs3)n2)cc1", "stereo": "stereo unspecified", "A": 35.97, "B": "2.163 & -7.801"}
{"compound": "c1ncc2c(n1)CN(Cc1nc(-c3ccc4c(c3)OCO4)no1)CC2", "A": 5.695, "B": 9.016}

Measurements from “University of Dundee, Small-Polar-MMV Screening Library” (2021), ChEMBL document CHEMBL3988442.